# Article PMC3796444 (PLoS ONE, 2013)
# These are yes or no findings as the source states them, for the method shown. Some entries that bind do so weakly or less than the wild type.
# What was measured:
# [1] = biological target: alanine:glyoxylate aminotransferase p.I340M, recombinant His-tagged (human) (UniProt P21549); assay: dynamic light scattering; holo-AGT, 5 µM AGT (in subunit) and 50 µM PLP, 20 mM Na-Hepes, 200 mM NaCl pH 7.4, 25°C; both purified
# [2] = biological target: alanine:glyoxylate aminotransferase p.I340M, recombinant His-tagged (human) (UniProt P21549); assay: crystal structure; p.I340M, 1.90 Å, space group P212121; 15% PEG 3350, 0.1 M Bis-Tris pH 5.2, 150 mM Li2SO4, 291 K; both purified
binder,measurement,setting,value
"alanine:glyoxylate aminotransferase p.I340M, recombinant His-tagged (enzyme, human, alanine:glyoxylate aminotransferase (AGT), human, polymorphic variant p.I340M; Crystallised here (PDB 2YOB); source: E. coli BL21 (pCOLDII), purified (IMAC, SEC)) MASHKLLVTPPKALLKPLSIPNQLLLGPGPSNLPPRIMAAGGLQMIGSMSKDMYQIMDEIKEGIQYVFQTRNPLTLVISGSGHCALEAALVNVLEPGDSFLVGANGIWGQRAVDIGERIGARVHPMTKDPGGHYTLQEVEEGLAQHKPVLLFLTHGESSTGVLQPLDGFGELCHRYKCLLLVDSVASLGGTPLYMDRQGIDILYSGSQKALNAPPGTSLISFSDKAKKKMYSRKTKPFSFYLDIKWLANFWGCDDQPRMYHHTIPVISLYSLRESLALIAEQGLENSWRQHREAAAYLHGRLQALGLQLFVKDPALRLPTVTTVAVPAGYDWRDIVSYVMDHFDIEIMGGLGPSTGKVLRIGLLGCNATRENVDRVTEALRAAL",binding,[1],binds
same,binding,[2],binds
